Experimental findings from the supplement of paper PMC12819154, “High-throughput peptide-centric local stability assay extends protein–ligand identification to membrane proteins, tissues and bacteria” (Nature Structural & Molecular Biology, 2025) are described below.

The chains behind the UniProt entries cited, without tags or fusion partners. Where a name states a change or a piece, a line headed by the entry shows the natural chain unless it says otherwise.
UniProt Q9ULF5: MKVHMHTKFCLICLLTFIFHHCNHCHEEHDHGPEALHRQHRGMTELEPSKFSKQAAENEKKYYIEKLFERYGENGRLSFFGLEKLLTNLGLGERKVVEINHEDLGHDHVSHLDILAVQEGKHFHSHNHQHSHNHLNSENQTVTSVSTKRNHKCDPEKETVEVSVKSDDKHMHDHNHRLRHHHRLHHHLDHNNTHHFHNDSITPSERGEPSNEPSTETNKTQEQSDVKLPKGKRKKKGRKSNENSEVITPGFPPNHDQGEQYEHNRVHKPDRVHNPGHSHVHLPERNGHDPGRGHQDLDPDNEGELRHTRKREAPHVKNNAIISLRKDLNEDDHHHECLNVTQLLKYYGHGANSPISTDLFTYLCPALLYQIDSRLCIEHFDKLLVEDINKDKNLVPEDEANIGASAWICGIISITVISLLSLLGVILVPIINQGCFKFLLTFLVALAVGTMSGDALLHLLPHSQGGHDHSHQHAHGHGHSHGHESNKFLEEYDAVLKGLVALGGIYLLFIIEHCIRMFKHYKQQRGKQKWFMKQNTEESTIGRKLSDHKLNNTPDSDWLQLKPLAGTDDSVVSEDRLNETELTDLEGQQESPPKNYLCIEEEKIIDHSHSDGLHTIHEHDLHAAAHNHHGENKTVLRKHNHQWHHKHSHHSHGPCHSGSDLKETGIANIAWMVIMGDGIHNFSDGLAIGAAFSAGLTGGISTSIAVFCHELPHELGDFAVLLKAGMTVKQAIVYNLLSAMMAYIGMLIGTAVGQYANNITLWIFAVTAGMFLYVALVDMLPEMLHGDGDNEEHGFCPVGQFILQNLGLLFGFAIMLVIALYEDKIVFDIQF
UniProt Q9UP83: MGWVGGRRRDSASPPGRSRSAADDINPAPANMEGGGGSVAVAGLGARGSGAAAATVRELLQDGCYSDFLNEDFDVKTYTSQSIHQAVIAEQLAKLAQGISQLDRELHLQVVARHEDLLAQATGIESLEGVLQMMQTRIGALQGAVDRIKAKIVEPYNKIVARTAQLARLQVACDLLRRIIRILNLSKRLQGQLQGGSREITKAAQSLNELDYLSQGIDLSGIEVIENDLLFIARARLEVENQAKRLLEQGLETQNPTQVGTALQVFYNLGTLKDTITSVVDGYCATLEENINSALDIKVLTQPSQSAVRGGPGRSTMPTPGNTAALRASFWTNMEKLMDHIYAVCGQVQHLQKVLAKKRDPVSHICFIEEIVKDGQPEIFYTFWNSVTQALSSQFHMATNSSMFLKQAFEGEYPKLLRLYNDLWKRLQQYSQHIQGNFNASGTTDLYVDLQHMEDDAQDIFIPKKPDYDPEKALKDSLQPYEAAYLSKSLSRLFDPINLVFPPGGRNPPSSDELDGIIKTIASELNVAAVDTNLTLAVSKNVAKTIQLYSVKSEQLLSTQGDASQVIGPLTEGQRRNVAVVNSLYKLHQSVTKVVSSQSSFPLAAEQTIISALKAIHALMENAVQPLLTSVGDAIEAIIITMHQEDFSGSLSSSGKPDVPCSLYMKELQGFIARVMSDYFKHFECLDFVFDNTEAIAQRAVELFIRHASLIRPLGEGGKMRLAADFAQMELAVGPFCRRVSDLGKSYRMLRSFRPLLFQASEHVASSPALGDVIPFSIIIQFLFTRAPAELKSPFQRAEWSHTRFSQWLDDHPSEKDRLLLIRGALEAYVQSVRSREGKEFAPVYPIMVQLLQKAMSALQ
UniProt Q9UPZ9: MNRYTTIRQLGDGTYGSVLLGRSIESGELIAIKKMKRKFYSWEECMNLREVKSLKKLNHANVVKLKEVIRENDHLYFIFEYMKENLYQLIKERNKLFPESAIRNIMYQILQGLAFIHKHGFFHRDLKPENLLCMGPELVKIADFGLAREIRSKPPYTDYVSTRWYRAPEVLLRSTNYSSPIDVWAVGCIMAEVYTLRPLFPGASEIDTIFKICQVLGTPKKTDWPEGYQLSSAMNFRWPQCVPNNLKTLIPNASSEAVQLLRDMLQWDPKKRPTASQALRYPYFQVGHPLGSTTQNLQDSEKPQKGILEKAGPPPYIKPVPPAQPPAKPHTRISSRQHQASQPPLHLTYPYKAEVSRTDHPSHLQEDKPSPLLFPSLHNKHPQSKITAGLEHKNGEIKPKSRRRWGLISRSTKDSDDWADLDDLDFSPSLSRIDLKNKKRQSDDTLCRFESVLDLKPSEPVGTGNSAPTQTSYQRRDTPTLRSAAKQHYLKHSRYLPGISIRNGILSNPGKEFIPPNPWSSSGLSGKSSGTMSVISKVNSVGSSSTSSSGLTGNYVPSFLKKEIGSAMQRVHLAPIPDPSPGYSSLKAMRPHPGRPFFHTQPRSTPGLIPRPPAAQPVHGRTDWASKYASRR
UniProt Q9ULR5: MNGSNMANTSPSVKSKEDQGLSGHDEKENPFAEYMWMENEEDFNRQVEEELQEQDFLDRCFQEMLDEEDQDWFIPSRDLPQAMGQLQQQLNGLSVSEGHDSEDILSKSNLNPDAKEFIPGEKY
UniProt Q9UL16, whole entry: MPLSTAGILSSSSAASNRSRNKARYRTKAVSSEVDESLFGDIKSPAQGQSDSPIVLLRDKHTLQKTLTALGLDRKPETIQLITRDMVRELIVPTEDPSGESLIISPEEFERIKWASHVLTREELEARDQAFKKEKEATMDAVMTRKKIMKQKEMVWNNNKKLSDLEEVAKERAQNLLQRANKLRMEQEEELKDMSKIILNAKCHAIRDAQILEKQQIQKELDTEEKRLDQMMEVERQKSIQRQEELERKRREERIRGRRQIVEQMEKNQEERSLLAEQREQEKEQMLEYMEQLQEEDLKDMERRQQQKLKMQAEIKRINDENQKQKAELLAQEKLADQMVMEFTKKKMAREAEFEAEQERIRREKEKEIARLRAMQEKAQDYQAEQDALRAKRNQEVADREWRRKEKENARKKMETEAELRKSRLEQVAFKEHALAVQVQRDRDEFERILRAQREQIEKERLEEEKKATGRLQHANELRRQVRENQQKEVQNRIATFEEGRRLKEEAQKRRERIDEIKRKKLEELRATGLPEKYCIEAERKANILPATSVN
UniProt Q9ULC4: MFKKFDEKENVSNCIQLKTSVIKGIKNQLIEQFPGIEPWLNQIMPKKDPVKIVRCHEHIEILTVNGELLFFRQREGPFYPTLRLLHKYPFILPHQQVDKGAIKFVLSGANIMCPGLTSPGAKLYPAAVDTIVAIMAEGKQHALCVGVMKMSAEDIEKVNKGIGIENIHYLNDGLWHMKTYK
UniProt Q9Y237, whole entry: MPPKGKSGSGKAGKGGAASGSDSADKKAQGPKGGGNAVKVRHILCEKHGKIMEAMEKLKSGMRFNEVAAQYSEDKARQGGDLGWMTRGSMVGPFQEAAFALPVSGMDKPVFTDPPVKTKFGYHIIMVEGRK
UniProt Q9ULZ3, whole entry: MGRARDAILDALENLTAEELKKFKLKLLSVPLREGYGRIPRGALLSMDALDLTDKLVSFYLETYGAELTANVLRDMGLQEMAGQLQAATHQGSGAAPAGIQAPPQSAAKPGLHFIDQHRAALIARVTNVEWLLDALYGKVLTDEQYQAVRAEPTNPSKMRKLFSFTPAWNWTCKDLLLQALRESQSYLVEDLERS
UniProt Q9UNA4: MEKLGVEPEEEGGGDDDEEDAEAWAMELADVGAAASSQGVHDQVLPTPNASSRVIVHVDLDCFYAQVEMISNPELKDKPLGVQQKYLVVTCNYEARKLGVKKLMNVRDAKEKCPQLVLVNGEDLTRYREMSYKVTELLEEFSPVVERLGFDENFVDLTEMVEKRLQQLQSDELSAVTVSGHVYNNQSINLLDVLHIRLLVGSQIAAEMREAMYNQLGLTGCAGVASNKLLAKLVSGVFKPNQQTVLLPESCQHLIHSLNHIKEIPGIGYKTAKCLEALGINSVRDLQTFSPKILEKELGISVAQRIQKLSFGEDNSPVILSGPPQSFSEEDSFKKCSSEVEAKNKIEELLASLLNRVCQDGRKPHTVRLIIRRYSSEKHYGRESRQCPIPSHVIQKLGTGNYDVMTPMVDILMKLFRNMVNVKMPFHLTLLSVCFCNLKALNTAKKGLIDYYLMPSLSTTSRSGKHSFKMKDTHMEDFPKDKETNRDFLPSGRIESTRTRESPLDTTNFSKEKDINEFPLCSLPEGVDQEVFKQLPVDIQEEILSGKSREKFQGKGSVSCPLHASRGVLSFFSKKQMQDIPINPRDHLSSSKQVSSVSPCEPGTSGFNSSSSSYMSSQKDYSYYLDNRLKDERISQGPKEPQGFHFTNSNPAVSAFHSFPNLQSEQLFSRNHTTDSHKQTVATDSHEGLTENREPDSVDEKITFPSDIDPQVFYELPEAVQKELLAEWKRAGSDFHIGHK
UniProt Q9UKK3: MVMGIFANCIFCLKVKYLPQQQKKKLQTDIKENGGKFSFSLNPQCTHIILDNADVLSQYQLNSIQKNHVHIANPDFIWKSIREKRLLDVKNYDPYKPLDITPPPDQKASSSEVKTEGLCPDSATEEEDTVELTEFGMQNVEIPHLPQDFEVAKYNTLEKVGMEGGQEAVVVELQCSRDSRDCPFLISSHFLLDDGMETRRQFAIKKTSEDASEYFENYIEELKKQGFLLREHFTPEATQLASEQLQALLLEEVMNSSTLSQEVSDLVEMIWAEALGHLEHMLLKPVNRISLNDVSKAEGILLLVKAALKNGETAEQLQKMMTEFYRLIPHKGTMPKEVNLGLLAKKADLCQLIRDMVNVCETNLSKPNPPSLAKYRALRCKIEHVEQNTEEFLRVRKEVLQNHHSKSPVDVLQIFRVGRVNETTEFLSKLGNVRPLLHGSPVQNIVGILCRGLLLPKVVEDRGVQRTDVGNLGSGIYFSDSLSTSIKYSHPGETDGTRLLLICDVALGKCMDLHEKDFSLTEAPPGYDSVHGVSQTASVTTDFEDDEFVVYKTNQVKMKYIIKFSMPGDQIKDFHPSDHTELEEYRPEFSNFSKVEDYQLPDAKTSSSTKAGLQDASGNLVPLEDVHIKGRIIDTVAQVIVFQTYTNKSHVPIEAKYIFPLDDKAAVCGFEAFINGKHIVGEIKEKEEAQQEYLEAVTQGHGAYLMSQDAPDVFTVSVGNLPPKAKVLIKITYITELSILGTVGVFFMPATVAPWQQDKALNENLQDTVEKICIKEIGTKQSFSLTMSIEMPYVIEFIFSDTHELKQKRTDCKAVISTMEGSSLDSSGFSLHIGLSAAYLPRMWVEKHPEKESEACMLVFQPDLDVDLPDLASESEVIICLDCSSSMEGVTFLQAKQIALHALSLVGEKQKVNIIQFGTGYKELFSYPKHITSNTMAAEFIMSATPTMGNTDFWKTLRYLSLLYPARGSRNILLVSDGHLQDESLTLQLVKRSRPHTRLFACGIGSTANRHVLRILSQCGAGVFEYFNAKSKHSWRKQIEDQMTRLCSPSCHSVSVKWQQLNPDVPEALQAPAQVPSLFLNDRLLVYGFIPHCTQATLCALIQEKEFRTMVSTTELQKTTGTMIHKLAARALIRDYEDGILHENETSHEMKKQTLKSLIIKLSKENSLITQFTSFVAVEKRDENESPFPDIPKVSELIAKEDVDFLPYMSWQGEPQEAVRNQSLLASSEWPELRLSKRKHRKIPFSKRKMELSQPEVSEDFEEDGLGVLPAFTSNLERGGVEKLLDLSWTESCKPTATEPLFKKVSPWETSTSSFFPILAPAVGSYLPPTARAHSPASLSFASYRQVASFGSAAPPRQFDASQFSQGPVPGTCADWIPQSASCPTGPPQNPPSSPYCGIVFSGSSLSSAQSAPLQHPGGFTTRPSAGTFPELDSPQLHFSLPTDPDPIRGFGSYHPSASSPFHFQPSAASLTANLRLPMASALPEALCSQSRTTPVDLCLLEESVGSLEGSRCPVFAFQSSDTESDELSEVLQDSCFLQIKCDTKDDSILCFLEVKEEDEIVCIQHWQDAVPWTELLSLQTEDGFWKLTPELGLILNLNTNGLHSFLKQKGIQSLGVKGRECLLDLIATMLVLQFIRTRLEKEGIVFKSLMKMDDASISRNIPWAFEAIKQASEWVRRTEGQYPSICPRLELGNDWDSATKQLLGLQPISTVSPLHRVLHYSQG
UniProt Q9UHX1: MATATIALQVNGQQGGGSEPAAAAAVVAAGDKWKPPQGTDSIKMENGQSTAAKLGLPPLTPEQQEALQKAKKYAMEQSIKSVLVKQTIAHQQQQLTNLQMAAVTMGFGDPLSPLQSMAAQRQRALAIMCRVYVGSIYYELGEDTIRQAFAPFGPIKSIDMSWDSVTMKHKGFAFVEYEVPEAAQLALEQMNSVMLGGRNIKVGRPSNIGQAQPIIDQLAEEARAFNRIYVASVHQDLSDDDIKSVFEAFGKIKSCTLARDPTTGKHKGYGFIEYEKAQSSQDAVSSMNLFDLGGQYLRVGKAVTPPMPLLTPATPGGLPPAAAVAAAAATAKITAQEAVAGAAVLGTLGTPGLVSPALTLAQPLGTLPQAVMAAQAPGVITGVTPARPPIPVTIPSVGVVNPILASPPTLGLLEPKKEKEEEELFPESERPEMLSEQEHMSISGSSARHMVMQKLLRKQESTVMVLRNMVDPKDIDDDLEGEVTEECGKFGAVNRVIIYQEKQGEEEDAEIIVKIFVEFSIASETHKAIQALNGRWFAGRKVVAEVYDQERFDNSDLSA

Some of the results follow. Small differences around the control level are noise.

Compound in the experiment: Cc1nc(Nc2ncc(C(=O)Nc3c(C)cccc3Cl)s2)cc(N2CCN(CCO)CC2)n1 [dasatinib]
Briefly: log2 fold change of tryptic peptide abundance, ligand vs vehicle (limited proteolysis) (log2 ratio); higher = more trypsin-susceptible (destabilized). Particulars: ligand concentration: 5 uM; sample: K562 cleared lysate.
“SLC39A10 (peptide sequence: NNAIISLR, peptide start residue: 318) (UniProt Q9ULF5)”: the log2 fold change was found to be 0.371.

As for “AKAP11 (peptide sequence: SQCDAASQTVTGHHLETHDLK, peptide start residue: 214) (UniProt Q9UKA4)”, the log2 fold change is -0.606. “VANGL2 (peptide sequence: RLQEEEQK, peptide start residue: 372) (UniProt Q9ULK5)”: the log2 fold change is -0.133. With “UniProt Q9UMZ2 (peptide sequence: DTIPQTSEQK, peptide start residue: 969)”, the log2 fold change turned out to be 0.245. To “COG5 (peptide sequence: IGALQGAVDR, peptide start residue: 138) (UniProt Q9UP83)” belongs -0.177; to “ICK (peptide sequence: LNHANVVK, peptide start residue: 68) (UniProt Q9UPZ9)”, 0.175; to “PA2G4 (peptide sequence: MGVVECAK, peptide start residue: 291) (UniProt Q9UQ80)”, 0.13. In the case of “UniProt Q9ULR5 (peptide sequence: EFIPGEKY, peptide start residue: 116)”, the log2 fold change was found to be 0.0438. Regarding “UniProt Q9UL16 (peptide sequence: LQHANELR, peptide start residue: 472)”, the log2 fold change was -0.134. For “MCTS1 (peptide sequence: GIGIENIHYLNDGLWHMK, peptide start residue: 161) (UniProt Q9ULC4)”, the log2 fold change turned out to be 0.308.

As for “SLC12A6 (peptide sequence: VHMTWTK, peptide start residue: 1045) (UniProt Q9UHW9)”, the log2 fold change is -0.36.

For “PIN4 (peptide sequence: TKFGYHIIMVEGR, peptide start residue: 118) (UniProt Q9Y237)”, the log2 fold change was -0.107.

In the case of “PYCARD (peptide sequence: VLTDEQYQAVR, peptide start residue: 140) (UniProt Q9ULZ3)”, the log2 fold change is -0.144. To “POLI (peptide sequence: GVLSFFSK, peptide start residue: 567) (UniProt Q9UNA4)” belongs -0.398.

As for “ANAPC5 (peptide sequence: KAEALEAAIENLNEAK, peptide start residue: 683) (UniProt Q9UJX4)”, the log2 fold change was -0.405. The result for “MED13 (peptide sequence: DCCNDCYLALEHGR, peptide start residue: 1227) (UniProt Q9UHV7)” reads -0.673. Consider “ZMIZ1 (peptide sequence: SDLELQFK, peptide start residue: 604) (UniProt Q9ULJ6)”, for which the log2 fold change is -0.3. As for “FOXJ3 (peptide sequence: HNLSLNKCFLK, peptide start residue: 128) (UniProt Q9UPW0)”, the log2 fold change was 0.51.

With “ZMYND8 (peptide sequence: SRFQLNLDKTIESCK, peptide start residue: 554) (UniProt Q9ULU4)”, the log2 fold change amounted to 0.375. The result for “CORO1C (peptide sequence: GLDVNKCEIAR, peptide start residue: 324) (UniProt Q9ULV4)” reads -0.837; that for “MAPK8IP3 (peptide sequence: TGSSPTQGIVNK, peptide start residue: 362) (UniProt Q9UPT6)”, 0.437; that for “STRIP2 (peptide sequence: QKDIEHFLEMSR, peptide start residue: 426) (UniProt Q9ULQ0)”, -0.206. As to “IPO11 (peptide sequence: LTVDDFEFR, peptide start residue: 541) (UniProt Q9UI26)”, the log2 fold change was -0.474.

Regarding “PARP4 (peptide sequence: AHSPASLSFASYR, peptide start residue: 1333) (UniProt Q9UKK3)”, the log2 fold change is -0.38.

Consider “ING1 (peptide sequence: GEAAAQADKPNSK, peptide start residue: 279) (UniProt Q9UK53)”, for which the log2 fold change worked out at 0.183. To “PUF60 (peptide sequence: SVFEAFGK, peptide start residue: 244) (UniProt Q9UHX1)” belongs 0.0676; to “USP25 (peptide sequence: GHDEELISHYR, peptide start residue: 918) (UniProt Q9UHP3)”, 0.322. To “GNE (peptide sequence: VAIVSMKGEIVKK, peptide start residue: 421) (UniProt Q9Y223)” belongs 0.764.
